The list shows a part of the results. Further columns of the screen follow, without active or inactive calls. Most of these compounds were active or inconclusive in the main read-out, so they are no random draw. The note in brackets gives the kind of curve behind each potency; many fits are weak.
Assay: qHTS Assay to Find Inhibitors of Chronic Active B-Cell Receptor Signaling
Conditions: ABC-DLBCL IkBa-CBG/CBR reporter, luminescence ratio (green luciferase fused to IkBa over red control in TMD8 lymphoma cells), 4 h
Procedure, shortened: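 Compounds up to 46 uM were incubated four hours with TMD8 cells whose green CBG68 luciferase is fused to IkappaBalpha; red CBR luminescence normalised the signal, and concentration-effect curves were fitted to fusion, red and ratio data.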

[1] = measured here: CBR red luminescence, cell number
[2] = measured here: IkBa-CBG green luminescence

| SMILES | AC50 [1] | AC50 [2] |
| --- | --- | --- |
| COc1ccc(NC(=S)Nc2ccc(C)c(Cl)c2)cc1OC | 15.8 µM [rising, single point] |  |
| Cc1ccc(NC(=O)N2CCC(C(=O)NCc3ccccc3)CC2)cc1 | 16.4 µM [rising, partial curve, poor fit] |  |
| Cc1cccc(Cl)c1NC(=O)N1CCCN(c2nc3ccc(Cl)cc3s2)CC1 | 35.5 µM [falling, single point] |  |
| COCC(=O)n1nc(-c2ccccc2)nc1NCc1ccccc1 | 11.2 µM [falling, single point] |  |
| Cc1ccc(Cl)cc1-n1ncc2c(NCCC3=CCCCC3)ncnc21 | 25.1 µM [falling, single point] |  |
| CCn1c(C)cc(/C=C2/NC(=O)N(CC(=O)Nc3cccc(C)c3)C2=O)c1C | 1.64 µM [rising, full curve, poor fit] |  |
| C=CCOc1ccc(/C=C2\SC(N)=NC2=O)cc1OC |  | 14.1 µM [falling, partial curve, poor fit] |
| COc1ccc2c(CC(=O)OCc3nc4ccsc4c(=O)[nH]3)coc2c1 | 29.1 µM [rising, single point] |  |
| Cc1cc(C)n(-c2nc(C)nc3c2cnn3-c2ccccc2)n1 | 23.1 µM [rising, single point] |  |
| COc1ccc(Nc2nnc(-c3ccc(C(=O)NCCO)cc3)c3ccccc23)cc1 | 31.6 µM [falling, single point] |  |
| CC(=O)NC(CC(=O)OCC(=O)c1cc(C)ccc1C)c1ccccc1 (centres undefined) | 0.146 µM [rising, partial curve, poor fit] |  |
| O=C(CSc1nnc(SCc2ccccc2Cl)s1)N/N=C/c1ccc(C(=O)O)cc1 | 35.5 µM [falling, single point] |  |
| CCc1nn(-c2ccccc2)c(=S)c2ccccc12 | 11.2 µM [rising, partial curve] |  |
| Cc1nnc(SCC(=O)Nc2nccs2)o1 |  | 35.5 µM [falling, single point] |
| O=c1oc(-c2ccccc2)nc2sc3c(c12)CCCC3 | 2.31 µM [falling, full curve] |  |
| O=C(CCN1CCCCO1)N1CCCC(Nc2ccc(F)c(F)c2)C1 (centres undefined) | 2.51 µM [rising, partial curve, poor fit] |  |
| CCOC(=O)CSc1nnc(-c2cccc(Br)c2)o1 | 22.4 µM [falling, single point] |  |
| CC(C(=O)Nc1nc2ccccc2s1)n1cc([N+](=O)[O-])cn1 (centres undefined) | 2.51 µM [rising, partial curve] | 35.5 µM [rising, partial curve, poor fit] |
| CNC(=S)NNC(=O)c1sccc1C | 4.61 µM [falling, partial curve] |  |
| COc1cccc(/C=C/c2ccccn2)c1O | 35.5 µM [falling, single point] |  |
| Fc1ccc(-n2cc(CNCCc3cccnc3)c(-c3ccccc3Cl)n2)cc1 | 35.5 µM [falling, single point] |  |

| SMILES | AC50 [1] | AC50 [2] |
| --- | --- | --- |
| CCOC(=O)c1cc(-c2ccc(OC)cc2)n(CCC(=O)Nc2cccc(C(C)=O)c2)c1C | 31.6 µM [rising, single point] |  |
| COc1ccc(NC(=O)C2=CN3CCS(=O)(=O)N=C3C=C2)c(OC)c1 | 0.366 µM [rising, partial curve, poor fit] |  |
| CCOc1ccc(CSc2nc(C)cc(COC)c2C#N)cc1OCC | 0.891 µM [rising, full curve] |  |
| O=C(COc1ccccc1)NCC(c1ccco1)N1CCN(c2ccc(F)cc2)CC1 (centres undefined) | 20.6 µM [falling, single point] |  |
| CNC(=S)N1N=C(c2ccc(OC)cc2)CC1c1ccc(Cl)cc1Cl (centres undefined) | 0.562 µM [rising, full curve, poor fit] |  |
| CCC/C(=N\NC(=O)c1csc(C)c1C)c1cccs1 | 29.1 µM [falling, single point] |  |
| CC(C)n1c(=O)n(CC(=O)NCC2CCCO2)c(=O)c2c3c(sc21)COC(C)(C)C3 (centres undefined) | 3.16 µM [rising, full curve] |  |
| COc1ccc(C(=O)OCC(=O)c2ccc3[nH]c(=O)[nH]c3c2)c(OC)c1OC | 8.2 µM [rising, partial curve, poor fit] |  |
| CCc1ccccc1NC(=O)c1cccc(NC(=O)/C=C/c2ccco2)c1 | 29.1 µM [falling, single point] |  |
| N=c1c2cn[nH]c2nc(SCC(=O)c2ccc(Br)cc2)n1-c1ccc(Br)cc1 | 0.708 µM [rising, full curve, poor fit] |  |
| CCCCn1nc(C(=O)NCC(c2cccs2)N2CCOCC2)c2ccccc2c1=O (centres undefined) |  | 14.6 µM [rising, partial curve, poor fit] |
| NC(=O)CSc1c[nH]c2ccccc12 | 4.11 µM [rising, single point] |  |
| CCC(C)/C(C)=N/NC(=O)c1ccccc1OCCOc1ccccc1 (centres undefined) | 5.01 µM [falling, partial curve] |  |
| COc1cc(C(=O)NCC(=O)OCC(=O)Nc2nnc(-c3ccccc3)o2)cc(OC)c1OC | 18.4 µM [falling, single point] |  |
| COc1cc(-c2nnc(-c3cccs3)o2)cc(OC)c1OC | 3.66 µM [rising, full curve] |  |
| COC1=C(Nc2ccccc2OC)C(=O)c2ccccc2C1=O | 17.8 µM [falling, partial curve, poor fit] |  |
| COc1cc(C)ccc1OCCCOc1c(Cl)cccc1Cl | 9.2 µM [rising, partial curve] |  |
| O=C(c1cnn(-c2ccc(Cl)cc2)c1)c1ccccc1O | 12.6 µM [falling, partial curve] |  |
| CC(=O)C1=C(O)C(=O)N(CCc2c[nH]c3ccccc23)C1c1cccc(O)c1 (centres undefined) | 1.64 µM [rising, partial curve, poor fit] |  |
| COc1ccccc1N1CCN(CC(O)COCCOc2ccc(Br)cc2)CC1 (centres undefined) | 20.6 µM [falling, partial curve, poor fit] |  |
| COc1cc([C@@H]2c3cc4c(cc3[C@@H](O)[C@H]3COC(=O)[C@H]23)OCO4)cc(OC)c1O[Si](C)(C)C(C)(C)C | 35.5 µM [rising, single point] | 25.1 µM [falling, single point] |

Full records as entered above.
`O=C(COc1ccccc1)NCC(c1ccco1)N1CCN(c2ccc(F)cc2)CC1` (centres undefined) reads AC50 [1]: 20.6 µM [falling, single point]
`COC1=C(Nc2ccccc2OC)C(=O)c2ccccc2C1=O` reads AC50 [1]: 17.8 µM [falling, partial curve, poor fit]
`CCOC(=O)c1cc(-c2ccc(OC)cc2)n(CCC(=O)Nc2cccc(C(C)=O)c2)c1C` reads AC50 [1]: 31.6 µM [rising, single point]
